Source: publication PMC10970676
No constants are given. Whether binding was seen depends on the method and setting. Binding can be weak; no strength is given.

Target: NtGPX8a (Nicotiana tabacum glutathione peroxidase 8a) (N. tabacum (variety TN90))
Assay: two-hybrid; bait pGBKT7::NtGPX8a, prey pGADT7::Trx, co-transformed into Y2H Gold yeast; growth spotted on DDO, TDO (SD/-Leu-Trp-His) and QDO (SD/-Leu-Trp-His-Ade) plates, 30 °C, 2-3 days

Row | Binder | binding
1 | AtTrxz (Arabidopsis thioredoxin z, AT3G06730) (protein, UniProt Q9M7X9 1-183) MALVQSRTFPHLNTPLSPILSSLHAPSSLFIRREIRPVAAPFSSSTAGNLPFSPLTRPRKLLCPPPRGKFVREDYLVKKLSAQELQELVKGDRKVPLIVDFYATWCGPCILMAQELEMLAVEYESNAIIVKVDTDDEYEFARDMQVRGLPTLFFISPDPSKDAIRTEGLIPLQMMHDIIDNEM | binds
2 | AtTrxm2 (Arabidopsis thioredoxin m2, AT4G03520) (protein, UniProt Q9SEU8 1-186) MAAFTCTSRPPISLRSETRIVSSSPSASSLSSRRMFAVLPESSGLRIRLSLSPASLTSIHQPRVSRLRRAVVCEAQETTTDIQVVNDSTWDSLVLKATGPVVVDFWAPWCGPCKMIDPLVNDLAQHYTGKIKFYKLNTDESPNTPGQYGVRSIPTIMIFVGGEKKDTIIGAVPKTTLTSSLDKFLP | binds
